Results are given in words; binding and its absence hold for the method and conditions named. Some binding calls cover weakened binding; strength is not graded here.
Tests used:
[1] = molecular target: rhesus CD40 on rhesus B cells (CD20+ cells of rhesus PBMCs) (rhesus) (UniProt F6SNI1); experiment: flow cytometry, rhesus PBMCs with fluorochrome-conjugated 2C10 and an anti-CD20 antibody
[2] = molecular target: recombinantly expressed human CD40 (human) (UniProt P25942); experiment: ELISA, CD40 adsorbed to the plate, goat anti-mouse IgG-HRP (FIG. 2B)
[3] = molecular target: recombinantly expressed rhesus CD40 (rhesus) (UniProt F6SNI1); experiment: as above
[4] = molecular target: recombinantly expressed human CD40 (human) (UniProt P25942); experiment: ELISA, recombinant human CD40 adsorbed to the plate, varying concentrations of 2C10, goat anti-mouse IgG-HRP
[5] = molecular target: rhesus CD40 on rhesus B cells (CD20+ cells of rhesus PBMCs) (rhesus) (UniProt F6SNI1); experiment: flow cytometry on rhesus PBMCs, CD20+ gate (FIG. 2A)
[6] = molecular target: recombinantly expressed rhesus CD40 (rhesus) (UniProt F6SNI1); experiment: ELISA, recombinant rhesus CD40 adsorbed to the plate, varying concentrations of 2C10, goat anti-mouse IgG-HRP

Amino acid sequences for entries named in this document (tags omitted). A change or cut given only in a name is not applied to a line headed by its entry. Chains listed by the source or under a name are the forms on record and can include a tag or linker. Residues count along the entry.
rhesus CD40 on rhesus B cells (CD20+ cells of rhesus PBMCs) (F6SNI1, form named): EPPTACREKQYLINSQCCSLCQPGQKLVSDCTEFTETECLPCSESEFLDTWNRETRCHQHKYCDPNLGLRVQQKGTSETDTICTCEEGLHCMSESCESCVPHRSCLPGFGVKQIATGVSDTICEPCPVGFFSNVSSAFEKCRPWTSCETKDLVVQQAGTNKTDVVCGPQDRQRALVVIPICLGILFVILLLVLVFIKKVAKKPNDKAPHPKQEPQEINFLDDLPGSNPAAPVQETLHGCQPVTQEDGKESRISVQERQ
recombinantly expressed rhesus CD40 (F6SNI1, form named): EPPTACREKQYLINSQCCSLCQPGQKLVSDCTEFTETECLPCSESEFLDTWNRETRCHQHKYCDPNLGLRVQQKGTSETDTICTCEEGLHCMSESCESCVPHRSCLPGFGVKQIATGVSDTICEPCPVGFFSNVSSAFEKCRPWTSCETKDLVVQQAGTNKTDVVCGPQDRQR
UniProt P25942, residues 21-193: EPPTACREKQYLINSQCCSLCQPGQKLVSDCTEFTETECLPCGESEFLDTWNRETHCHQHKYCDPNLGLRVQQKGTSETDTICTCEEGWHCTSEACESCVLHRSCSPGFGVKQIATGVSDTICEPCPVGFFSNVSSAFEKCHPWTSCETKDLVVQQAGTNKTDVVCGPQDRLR

Measured: binding

B1: anti-CD40 antibody 2C10 (antibody, mouse IgG1, V domains shown)
VH: QVQLQQSGAELAKPGASVKMSCKASGYTFTNYWMHWVKQRPGQGLEWIGYINPSNDYTKYNQKFKDKATLTADKSSNTAYMQLGSLTSEDSAVYYCARQGFPYWGQGTLVTVS
VL: QIVLTQSPAIMSASPGEKVTMTCSASSSVSYMHWYHQRSGTSPKRWIYDTSKLASGVPARFSGSGSGTSYSLTISSMEAEDAATYYCHQLSSDPFTFGSGTKLEIK
notes: also called 2C10 antibody; APC-conjugated 2C10
binds: all assays above

Reference: patent publication US20260263595A1 (BETH ISRAEL DEACONESS MEDICAL CENTER, published 2026)
